Primary screen of a compound library

Amino acid sequences for entries named in this document (tags omitted). Residues count along the entry.
UniProt I6X8D2, whole entry: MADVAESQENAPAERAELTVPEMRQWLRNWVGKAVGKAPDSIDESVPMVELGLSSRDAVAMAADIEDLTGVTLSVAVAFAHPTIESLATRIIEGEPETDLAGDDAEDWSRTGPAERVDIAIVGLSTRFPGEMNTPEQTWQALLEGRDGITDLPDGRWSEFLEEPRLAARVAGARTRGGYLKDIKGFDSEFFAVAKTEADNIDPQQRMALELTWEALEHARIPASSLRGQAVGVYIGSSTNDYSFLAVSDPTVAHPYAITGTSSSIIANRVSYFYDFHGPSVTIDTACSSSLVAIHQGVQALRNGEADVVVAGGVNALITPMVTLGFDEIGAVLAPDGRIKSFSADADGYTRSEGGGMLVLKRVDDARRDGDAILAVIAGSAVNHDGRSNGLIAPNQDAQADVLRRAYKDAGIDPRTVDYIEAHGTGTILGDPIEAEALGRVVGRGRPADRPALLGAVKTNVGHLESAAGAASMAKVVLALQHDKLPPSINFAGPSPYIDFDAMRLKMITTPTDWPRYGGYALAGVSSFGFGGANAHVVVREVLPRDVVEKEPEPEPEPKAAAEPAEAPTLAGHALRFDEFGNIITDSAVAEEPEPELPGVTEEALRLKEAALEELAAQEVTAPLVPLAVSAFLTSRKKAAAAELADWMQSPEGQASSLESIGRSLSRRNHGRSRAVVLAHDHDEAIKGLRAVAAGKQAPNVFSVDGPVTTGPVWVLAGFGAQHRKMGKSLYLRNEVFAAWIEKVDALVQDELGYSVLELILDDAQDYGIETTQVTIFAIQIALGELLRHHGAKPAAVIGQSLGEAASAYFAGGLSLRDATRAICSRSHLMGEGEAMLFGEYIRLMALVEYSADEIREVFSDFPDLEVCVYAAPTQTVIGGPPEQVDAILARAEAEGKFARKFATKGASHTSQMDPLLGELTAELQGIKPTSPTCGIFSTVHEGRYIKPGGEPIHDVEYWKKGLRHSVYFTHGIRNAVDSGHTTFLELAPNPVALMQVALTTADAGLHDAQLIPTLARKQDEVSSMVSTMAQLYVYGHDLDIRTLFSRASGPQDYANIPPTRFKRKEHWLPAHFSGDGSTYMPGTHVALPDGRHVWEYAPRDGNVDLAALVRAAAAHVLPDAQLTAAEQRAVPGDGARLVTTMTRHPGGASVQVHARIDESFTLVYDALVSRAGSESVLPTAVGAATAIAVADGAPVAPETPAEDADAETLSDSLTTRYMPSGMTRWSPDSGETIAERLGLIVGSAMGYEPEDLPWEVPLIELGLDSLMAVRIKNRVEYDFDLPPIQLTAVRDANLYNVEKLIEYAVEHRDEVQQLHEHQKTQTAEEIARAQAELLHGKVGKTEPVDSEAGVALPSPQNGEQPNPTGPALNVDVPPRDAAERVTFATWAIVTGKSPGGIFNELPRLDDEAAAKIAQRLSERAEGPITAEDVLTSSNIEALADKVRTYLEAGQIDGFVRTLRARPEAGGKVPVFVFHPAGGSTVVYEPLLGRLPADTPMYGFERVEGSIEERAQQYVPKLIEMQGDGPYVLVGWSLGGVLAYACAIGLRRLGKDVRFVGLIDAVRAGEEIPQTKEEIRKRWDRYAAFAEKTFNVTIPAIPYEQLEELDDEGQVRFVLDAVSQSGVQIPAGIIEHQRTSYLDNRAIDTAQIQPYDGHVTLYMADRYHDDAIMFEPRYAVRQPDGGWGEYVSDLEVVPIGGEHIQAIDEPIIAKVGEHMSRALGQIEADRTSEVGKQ
UniProt A4I591, 1-473: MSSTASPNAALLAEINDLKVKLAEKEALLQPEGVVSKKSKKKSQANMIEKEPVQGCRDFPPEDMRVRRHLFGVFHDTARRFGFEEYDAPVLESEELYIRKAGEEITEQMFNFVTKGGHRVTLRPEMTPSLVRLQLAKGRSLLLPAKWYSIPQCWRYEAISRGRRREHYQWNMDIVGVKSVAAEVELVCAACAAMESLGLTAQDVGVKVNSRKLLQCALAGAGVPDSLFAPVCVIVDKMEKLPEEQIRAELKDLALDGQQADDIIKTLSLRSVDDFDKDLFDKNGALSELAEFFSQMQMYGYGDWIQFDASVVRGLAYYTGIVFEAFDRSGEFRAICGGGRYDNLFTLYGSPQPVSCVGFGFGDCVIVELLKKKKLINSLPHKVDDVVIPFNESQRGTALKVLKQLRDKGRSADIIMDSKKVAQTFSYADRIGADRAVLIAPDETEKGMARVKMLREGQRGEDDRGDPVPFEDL
UniProt P9WPC5, whole entry: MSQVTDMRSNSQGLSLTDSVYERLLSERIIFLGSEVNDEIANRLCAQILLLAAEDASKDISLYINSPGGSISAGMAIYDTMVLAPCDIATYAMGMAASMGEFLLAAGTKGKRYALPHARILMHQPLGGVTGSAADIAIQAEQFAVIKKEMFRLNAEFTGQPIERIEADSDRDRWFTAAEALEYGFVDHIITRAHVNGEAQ
UniProt P9WPC3, whole entry partner: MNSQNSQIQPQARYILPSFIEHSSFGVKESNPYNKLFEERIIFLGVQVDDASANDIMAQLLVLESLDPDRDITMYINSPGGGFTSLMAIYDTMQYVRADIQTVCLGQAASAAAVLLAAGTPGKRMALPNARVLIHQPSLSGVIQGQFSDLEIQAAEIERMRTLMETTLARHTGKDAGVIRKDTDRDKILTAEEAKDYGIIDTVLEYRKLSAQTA
UniProt P9WNZ1, whole entry: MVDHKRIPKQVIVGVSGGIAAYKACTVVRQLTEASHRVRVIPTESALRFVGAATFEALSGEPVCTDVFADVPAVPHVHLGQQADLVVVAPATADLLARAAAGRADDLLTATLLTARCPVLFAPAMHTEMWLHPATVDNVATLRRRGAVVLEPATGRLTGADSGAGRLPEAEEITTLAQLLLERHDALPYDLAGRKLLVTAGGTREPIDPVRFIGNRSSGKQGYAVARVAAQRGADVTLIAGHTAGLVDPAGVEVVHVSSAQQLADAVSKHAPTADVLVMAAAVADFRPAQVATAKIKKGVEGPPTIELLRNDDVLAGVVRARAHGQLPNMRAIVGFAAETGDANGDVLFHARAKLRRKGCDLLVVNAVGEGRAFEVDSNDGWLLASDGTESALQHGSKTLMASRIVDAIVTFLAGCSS

Data taken from ChEMBL document CHEMBL3988442, “University of Dundee, Small-Polar-MMV Screening Library” (2021).

The filed quantity is “Percent Effect” (%). The record does not define 0% and 100%; most values in the screen are far below 50% and negative numbers occur (in some assays of this library far below -100). This is an unselected part of the compounds tested.

Pks13 thioesterase: 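Enzyme assay of the thioesterase domain of polyketide synthase 13; the read-out is not stated. Target: Polyketide synthase Pks13, Mycobacterium tuberculosis (UniProt I6X8D2). Compounds at 30 µM. The record gives no direction; the compounds picked for IC50 retests had high values, so higher reads as stronger inhibition. Of about 67,000 compounds tested this way, about 300 (0.46%) reached 50% or more in at least one test.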
LiHisRS: 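Enzyme assay of histidyl-tRNA synthetase; the read-out is not stated. Target: Histidine-tRNA ligase, Leishmania infantum (UniProt A4I591). Compounds at 30 µM. Direction is inferred from retests: higher values go with stronger inhibition. The assay is labelled LdHisRS but filed under L. infantum. Of about 69,000 compounds tested this way, about 410 (0.6%) reached 50% or more in at least one test.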
Leishmania in macrophages: 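Cell assay of Leishmania donovani living inside macrophages; the read-out is not stated. Compounds at 30 µM. Higher reads as stronger inhibition (inferred: compounds with an IC50 in retests scored well above the rest). About 69,000 compounds were tested under these conditions; 1.5% (about 1,000) showed 50% or more at least once.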
ClpP1P2: 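Protease assay of ClpP1P2, read by the AMC dye that it sets free. Target: ClpP1P2, Mycobacterium tuberculosis (UniProt P9WPC5 and UniProt P9WPC3). Compounds at 50 µM. Higher reads as stronger inhibition, judged from the few compounds that gave an IC50. Most other retested compounds had strongly negative values. Size under these conditions: about 69,000 compounds, about 10 of them at 50% or above in at least one test.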
Toxoplasma: 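Assay of Toxoplasma gondii numbers, read through their beta-galactosidase reporter with a colour substrate. Compounds at 10 µM. Higher reads as fewer parasites (inferred from which compounds were picked for retests). About 67,000 compounds were tested under these conditions; 0.38% (about 260) showed 50% or more at least once.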
CoaBC: 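Coenzyme A biosynthesis protein CoaBC, Mycobacterium tuberculosis (UniProt P9WNZ1). Enzyme assay of CoaBC with a phosphate dye (Biomol Green) read at 650 nm. Concentration: 30 µM. Direction is inferred from only a few compounds that gave an IC50; most scored high, so higher reads as stronger inhibition. Most strong results did not repeat in a second test. About 67,000 compounds were tested under these conditions; 0.06% (about 40) showed 50% or more at least once.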

Result for CC(C)Cc1cc(C(=O)N2CCC(Oc3cccnc3)CC2)n(C)n1 was Pks13 thioesterase: -26.55%; LiHisRS: 11.11%; Leishmania in macrophages: 28.03%; ClpP1P2: -8.308%; Toxoplasma: 5.712%; CoaBC: 6.211%. Result for CCOC(=O)c1ccc(NC(=O)c2cc3c([nH]c2=O)CCCC3)cc1 was Pks13 thioesterase: -13.38%; LiHisRS: 19.48%; Leishmania in macrophages: 34.55%; ClpP1P2: -2.959%; Toxoplasma: 0.9451%; CoaBC: 9.177%. Cc1ccc(-c2n[nH]cc2CNCC2CCN(CC(F)(F)F)C2)o1 (centres undefined) read Pks13 thioesterase: 2.178%; LiHisRS: 11.67%; ClpP1P2: -10.06%; CoaBC: -25.84%. COCCN1CCC(NCc2cccc(F)c2)C1 (centres undefined) gave Pks13 thioesterase: -2.566%; LiHisRS: -16.44%; Leishmania in macrophages: 9.739%; ClpP1P2: 18.44%; Toxoplasma: 1.588%; CoaBC: 1.446%. Result for CC(C)NC(=O)CNC(=O)C12CCC(=O)N1c1cc(Cl)ccc1S2 (centres undefined) was LiHisRS: 13.16%; Leishmania in macrophages: -0.2927%; ClpP1P2: -0.7547%; Toxoplasma: -23.39%; CoaBC: -8.871%. Result for O=C(COc1ccc(-n2cccn2)nn1)NC1CCCCC1 was Pks13 thioesterase: 2.849%; LiHisRS: 9.333%; Leishmania in macrophages: 12.92%; ClpP1P2: -2.025%; Toxoplasma: -9.993%; CoaBC: -7.356%. With O=C(NCCNc1ncccn1)N1CCSCC1 the screen gave Pks13 thioesterase: -9.606%; LiHisRS: 14.29%; Leishmania in macrophages: 24.16%; ClpP1P2: 7.114%; Toxoplasma: 3.044%; CoaBC: 6.05%.

For CCN1CCC(CNC(=O)C2(c3ccc(F)cc3)CC2)C1 (centres undefined) the result was Pks13 thioesterase: -37.36%; LiHisRS: 16.52%; Leishmania in macrophages: -20.22%; ClpP1P2: 15.48%; Toxoplasma: -48.87%; CoaBC: 4.453%. Result for [H][C@]12CC[C@]([H])(CN(CC(=O)N(C)C)C1)N(C/C=C/c1ccc(F)cc1)C2 was Leishmania in macrophages: -2.176%; Toxoplasma: -6.992%. O=C(O)C(F)(F)F.O=C(O)C(F)(F)F.[H][C@@]12COC[C@]1([H])[C@@H](OCCN(C)C)CN2Cc1ccc(C)o1 read Leishmania in macrophages: -6.042%; Toxoplasma: -6.846%. For N[C@H]1CC[C@@H](NC(=O)c2ccc3nc(-c4ccc(F)cc4)cn3c2)CC1 the result was Pks13 thioesterase: -4.35%; LiHisRS: 18.28%; Leishmania in macrophages: 12.73%; ClpP1P2: -1.818%; Toxoplasma: -2.294%; CoaBC: 4.263%. For O=C(O)c1ccc(S(=O)(=O)Nc2cnn(CC(F)(F)F)c2)cc1 the result was Pks13 thioesterase: -16.07%; LiHisRS: 19.1%; Leishmania in macrophages: -6.946%; ClpP1P2: 1.075%; Toxoplasma: 21.21%; CoaBC: -2.865%. [H][C@]12CC[C@]([H])(CC(=O)NC1)N2C1CSCCSC1 read Leishmania in macrophages: 14.47%; Toxoplasma: -1.323%. Result for CCn1cc(CN2CCCN(C(=O)Cc3cccs3)CC2)cn1 was Pks13 thioesterase: -14.88%; LiHisRS: -14.61%; Leishmania in macrophages: 8.395%; ClpP1P2: -3.45%; CoaBC: 2.314%.

CCN(Cc1cccc(F)c1)Cc1nc2c(cnn2C)c(=O)[nH]1 gave Pks13 thioesterase: -13.41%; LiHisRS: 2.655%; Leishmania in macrophages: 19.23%; ClpP1P2: -23.46%; Toxoplasma: -8.292%; CoaBC: 0.2611%. With CN1CC(=O)N(c2ccccc2)CC12CCN(C(=O)c1cnccn1)C2.O=C(O)C(F)(F)F (centres undefined) the screen gave Leishmania in macrophages: 4.293%; Toxoplasma: 11.63%. With COCc1nc(-c2ccc(S(=O)(=O)N3CCCC3)cc2)cs1 the screen gave Pks13 thioesterase: 3.012%; LiHisRS: 2.632%; Leishmania in macrophages: 4.059%; ClpP1P2: -5.517%; Toxoplasma: -3.192%; CoaBC: 10.08%. CN(CCC(=O)N1CCc2sccc2C1)Cc1cnn(C)c1 read Pks13 thioesterase: -5.972%; LiHisRS: 16.07%; Leishmania in macrophages: -11.19%; ClpP1P2: -33.22%; Toxoplasma: -3.482%; CoaBC: 0.2273%. CCCNC(=O)Cn1cc(C#N)c(=O)c2cc(Br)ccc21 read Pks13 thioesterase: -13.71%; LiHisRS: 14.52%; Leishmania in macrophages: 23.17%; ClpP1P2: -3.649%; CoaBC: 1.107%. For Cc1ccccc1-c1cc(C(=O)N2CCCC(n3ccnc3C)C2)[nH]n1 (centres undefined) the result was Pks13 thioesterase: -17.8%; LiHisRS: 3.39%; Leishmania in macrophages: 34.88%; ClpP1P2: -7.2%; Toxoplasma: 25.56%; CoaBC: 0%. Cc1ccc(-c2nc(CN3CCCC(C(=O)N(C)C)C3)cs2)o1 (centres undefined) gave Pks13 thioesterase: -10.41%; LiHisRS: 21.74%; Leishmania in macrophages: 18.56%; ClpP1P2: 13.11%; Toxoplasma: -6.928%; CoaBC: 11.07%.